These are yes or no findings as the source states them, for the method shown. For some of these results: In cells and extracts the contact can be indirect. Some binding calls cover weakened binding; strength is not graded here.
T1: Drosophila Legless (Lgs) (Drosophila) (UniProt Q961D9)
T1 sequence (looked up): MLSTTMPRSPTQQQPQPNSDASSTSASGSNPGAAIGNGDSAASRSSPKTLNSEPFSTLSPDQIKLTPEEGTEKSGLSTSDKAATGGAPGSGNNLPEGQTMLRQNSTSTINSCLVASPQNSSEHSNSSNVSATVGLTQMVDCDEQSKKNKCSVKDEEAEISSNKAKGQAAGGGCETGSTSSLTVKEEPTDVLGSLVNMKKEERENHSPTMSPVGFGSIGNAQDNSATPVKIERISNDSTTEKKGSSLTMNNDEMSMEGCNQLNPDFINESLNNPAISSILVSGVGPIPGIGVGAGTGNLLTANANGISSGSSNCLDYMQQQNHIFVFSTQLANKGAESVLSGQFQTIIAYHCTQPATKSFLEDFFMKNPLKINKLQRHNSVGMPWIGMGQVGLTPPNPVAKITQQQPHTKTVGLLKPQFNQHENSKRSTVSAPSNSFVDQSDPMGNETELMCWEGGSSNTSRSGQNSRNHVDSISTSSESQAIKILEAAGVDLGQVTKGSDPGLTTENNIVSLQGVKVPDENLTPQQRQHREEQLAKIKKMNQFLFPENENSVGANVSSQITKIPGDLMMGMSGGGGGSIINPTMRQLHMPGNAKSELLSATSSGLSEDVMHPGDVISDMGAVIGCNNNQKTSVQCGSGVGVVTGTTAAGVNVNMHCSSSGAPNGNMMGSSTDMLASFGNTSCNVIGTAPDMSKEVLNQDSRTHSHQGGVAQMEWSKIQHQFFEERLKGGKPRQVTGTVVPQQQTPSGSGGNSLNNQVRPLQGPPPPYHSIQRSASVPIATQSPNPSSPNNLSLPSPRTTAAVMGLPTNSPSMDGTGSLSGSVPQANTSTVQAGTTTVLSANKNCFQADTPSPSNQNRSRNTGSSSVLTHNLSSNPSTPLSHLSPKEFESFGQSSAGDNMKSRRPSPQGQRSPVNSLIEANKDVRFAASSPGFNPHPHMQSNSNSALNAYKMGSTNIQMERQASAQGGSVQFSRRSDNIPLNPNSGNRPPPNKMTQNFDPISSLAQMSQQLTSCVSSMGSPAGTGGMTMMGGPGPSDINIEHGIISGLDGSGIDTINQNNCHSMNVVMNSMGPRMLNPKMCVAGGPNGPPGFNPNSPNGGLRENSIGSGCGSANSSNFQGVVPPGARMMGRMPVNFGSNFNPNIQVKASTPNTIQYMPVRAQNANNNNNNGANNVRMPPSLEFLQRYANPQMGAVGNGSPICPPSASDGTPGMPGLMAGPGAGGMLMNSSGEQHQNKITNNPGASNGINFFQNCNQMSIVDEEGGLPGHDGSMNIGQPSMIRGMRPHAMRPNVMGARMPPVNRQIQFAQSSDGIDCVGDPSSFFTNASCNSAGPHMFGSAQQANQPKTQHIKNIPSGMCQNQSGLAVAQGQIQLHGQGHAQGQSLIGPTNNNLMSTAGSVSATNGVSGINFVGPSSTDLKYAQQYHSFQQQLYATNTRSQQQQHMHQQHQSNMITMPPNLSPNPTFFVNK

By UniProt entry, the sequences of proteins in these tests, tags left out. Where a name states a change or a piece, a line headed by the entry shows the natural chain unless it says otherwise.
UniProt P0A7C2: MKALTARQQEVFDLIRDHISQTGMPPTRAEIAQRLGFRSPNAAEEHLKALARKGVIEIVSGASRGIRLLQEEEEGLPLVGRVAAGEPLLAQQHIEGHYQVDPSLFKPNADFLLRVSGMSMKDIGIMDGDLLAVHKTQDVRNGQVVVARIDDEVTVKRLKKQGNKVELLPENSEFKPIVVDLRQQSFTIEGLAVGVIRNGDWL

T2: hLgs/BCL9 (human) (UniProt O00512)
T2 sequence (looked up): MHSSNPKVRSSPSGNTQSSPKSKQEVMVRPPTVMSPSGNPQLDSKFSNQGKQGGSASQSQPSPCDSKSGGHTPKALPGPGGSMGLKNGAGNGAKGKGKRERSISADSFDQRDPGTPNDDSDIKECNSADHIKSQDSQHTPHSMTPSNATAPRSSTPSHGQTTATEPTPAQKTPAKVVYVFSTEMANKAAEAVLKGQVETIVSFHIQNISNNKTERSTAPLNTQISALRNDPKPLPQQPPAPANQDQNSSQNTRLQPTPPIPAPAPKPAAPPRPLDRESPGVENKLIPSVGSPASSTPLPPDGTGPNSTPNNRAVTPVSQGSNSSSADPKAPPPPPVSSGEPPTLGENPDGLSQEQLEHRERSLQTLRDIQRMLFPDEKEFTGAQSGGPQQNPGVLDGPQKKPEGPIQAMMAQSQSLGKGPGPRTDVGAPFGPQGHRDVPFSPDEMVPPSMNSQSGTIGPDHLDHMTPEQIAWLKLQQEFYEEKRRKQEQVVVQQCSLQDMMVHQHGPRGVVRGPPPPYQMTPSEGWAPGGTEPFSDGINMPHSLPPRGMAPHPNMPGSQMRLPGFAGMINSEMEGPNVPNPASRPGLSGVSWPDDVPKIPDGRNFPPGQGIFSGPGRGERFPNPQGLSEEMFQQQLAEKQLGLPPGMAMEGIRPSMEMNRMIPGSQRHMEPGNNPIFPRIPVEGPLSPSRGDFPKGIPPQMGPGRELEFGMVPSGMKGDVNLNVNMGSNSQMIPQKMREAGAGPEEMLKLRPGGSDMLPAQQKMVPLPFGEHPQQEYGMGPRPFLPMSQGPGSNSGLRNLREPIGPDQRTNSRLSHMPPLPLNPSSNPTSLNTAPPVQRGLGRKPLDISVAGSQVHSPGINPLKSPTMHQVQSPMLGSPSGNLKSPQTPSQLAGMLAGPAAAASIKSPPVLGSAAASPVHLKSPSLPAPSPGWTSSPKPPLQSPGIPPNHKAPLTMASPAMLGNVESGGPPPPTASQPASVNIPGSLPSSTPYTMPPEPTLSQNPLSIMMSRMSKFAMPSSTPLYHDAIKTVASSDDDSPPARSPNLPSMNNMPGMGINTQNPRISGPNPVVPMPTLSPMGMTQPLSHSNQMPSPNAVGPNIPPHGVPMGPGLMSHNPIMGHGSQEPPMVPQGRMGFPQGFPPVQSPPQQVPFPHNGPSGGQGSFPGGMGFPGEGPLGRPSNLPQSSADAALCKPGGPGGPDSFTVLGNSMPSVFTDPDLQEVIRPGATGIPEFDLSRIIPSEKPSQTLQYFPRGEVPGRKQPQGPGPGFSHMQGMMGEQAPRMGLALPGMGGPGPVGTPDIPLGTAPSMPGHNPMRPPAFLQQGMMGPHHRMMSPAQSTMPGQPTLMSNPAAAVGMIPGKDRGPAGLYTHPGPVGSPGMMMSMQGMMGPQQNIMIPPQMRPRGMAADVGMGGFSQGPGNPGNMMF


Experiments:
[1] = biological target: LgsN (first 732 amino acids of Drosophila Legless) fused to the LexA DNA-binding domain (Drosophila) (UniProt P0A7C2+Q961D9); assay: yeast two-hybrid screen, N-terminal half of Lgs as bait
[2] = biological target: T1, Drosophila Legless (Lgs) (Drosophila); assay: yeast two-hybrid and pull-down (FIG. 4)
[3] = biological target: LgsFL (full-length Drosophila Legless protein of 1464 amino acids) fused to the LexA DNA-binding domain (Drosophila) (UniProt P0A7C2+Q961D9); assay: yeast two-hybrid screen, entire Lgs protein as bait
[4] = biological target: T1, Drosophila Legless (Lgs) (Drosophila); assay: summary of the yeast two-hybrid and pull-down results
[5] = biological target: T2, hLgs/BCL9 (human); assay: interaction mapping (FIG. 4d)
[6] = biological target: T2, hLgs/BCL9 (human); assay: yeast two-hybrid and pull-down (FIG. 4)
[7] = biological target: T2, hLgs/BCL9 (human); assay: summary of the yeast two-hybrid and pull-down results

binding [1]	binding [2]	binding [3]	binding [4]	binding [5]	binding [6]	binding [7]	Binder
binds	binds	binds	binds				Drosophila melanogaster Daughter of Legless (Doll) protein (protein) MTHNLGMAPYRLPGPAGGLCPPDFKPPPPTDIISAPSNPKKRRKTSSAANSAAAVAAAAAAAAAANSMQQQQAPPTPQDLLPPPPMGGFGDTIIASNPFDDSPQVSAMSSSAAAAMAAMNQMGGGPGGGHFGGGGPGGHPHWEDRMGMGGGPPPPPHMHPHMHPHHPGGPMGHPHGPHPHMGGPPPMRGMSPMHPHQMGPGPGVGLPPHMNHGRPGGPGGPGGPVPMGSPMGGIAGMGGMSPMGGMGGPSISPHHMGMGGLSPMGGGPNGPNPRAMQGSPMGGPGQNSPMNSLPMGSPMGNPIGSPLGPPSGPGPGNPGNTGGPQQQQQQPPQPPMNNGQMGPPPLHSPLGNGPTGHGSHMPGGPIPGPGPGPGGLVGPGGISPAHGNNPGGSGNNMLGGNPGGGNSNNNGSNTSNASNNNQNPHLSPAAGRLGVPTSMQSNGPSVSSVASSSVPSPATPTLTPTSTATSMSTSVPTSSPAPPAMSPHHSLNSAGPSPGMPNSGPSPLQSPAGPNGPNNNNSNNNNGPMMGQMIPNAVPMQHQQHMGGGPPGHGPGPMPGMGMNQMLPPQQPSHLGPPHPNMMNHPHHPHHHPGGPPPHMMGGPGMHGGPAGMPPHMGGGPNPHMMGGPHGNAGPHMGHGHMGGVPGPGPGPGGMNGPPHPHMSPHHGHPHHHHNPMGGPGPNMFGGGGGGPMGPGGPMGNMGPMGGGPMGGPMGVGPKPMTMGGGKMYPPGQPMVFNPQNPNAPPIYPCGMCHKEVNDNDEAVFCESGCNFFFHRTCVGLTEAAFQMLNKEVFAEWCCDKCVSSKHIPMVKFKC
				binds	binds	binds	human Doll protein hDOLL-1 (protein) MPAENSPAPAYKVSSHGGDSGLDGLGGPGVQLGSPDKKKRKANTQGPSFPPLSEYAPPPNPNSDHLVAANPFDDNYNTISYKPLPSSNPYLGPGYPGFGGYSTFRMPPHVPPRMSSPYCGPYSLRNQPHPFPQNPLGMGFNRPHAFNFGPHDNSSFGNPSYNNALSQNVNMPNQHFRQNPAENFSQIPPQNASQVSNPDLASNFVPGNNSNFTSPLESNHSFIPPPNTFGQAKAPPPKQDFTQGATKNTNQNSSAHPPHLNMDDTVNQSNIELKNVNRNNAVNQENSRSSSTEATNNNPANGTQNKPRQPRGAADACTTEKSNKSSLHPNRHGHSSSDPVYPCGICTNEVNDDQDAILCEASCQKWFHRICTGMTETAYGLLTAEASAVWGCDTCMADKDVQLMRTRETFGPSAVGSDA
